# Assay results

Source: PubChem BioAssay AID1080 (Emory University Molecular Libraries Screening Center, 2008).

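A counter-screen in EP4-overexpressing cells measuring cyclic AMP with a time-resolved FRET kit under weak PGE2 stimulation. Compounds were tested at 20 µM final. A low (about EC15) PGE2 dose was present. Percent cAMP induction as a fraction of the 1 µM PGE2 response, averaged over three replicates; a higher value means more cAMP.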

Values are in %. Common to all entries: measured here: EP4 receptor counter-screen. Part of the compounds only, not a random draw; the main read-out is not listed here.

| # | compound | condition | cAMP induction (%) |
|---|---|---|---|
| 1 | `Cc1noc(C)c1COC(=O)C(c1ccccc1)c1ccccc1` | percent of 1 uM PGE2 response; plus low (about EC15) PGE2 agonist | -16.07 |
| 2 | `Cc1ccc(S(=O)(=O)NCC(=O)OCN2C(=O)c3ccccc3C2=O)cc1` | percent of 1 uM PGE2 response; plus low (about EC15) PGE2 agonist | -2.627 |
| 3 | `COc1ccccc1CNc1cc(C)ccc1C` | percent of 1 uM PGE2 response; plus low (about EC15) PGE2 agonist | 7.51 |
| 4 | `O=C1CCCc2ccccc2N1Cc1c(Cl)cccc1Cl` | percent of 1 uM PGE2 response; plus low (about EC15) PGE2 agonist | -7.127 |
| 5 | `Cn1nc(C(F)(F)F)c(/C=N/OC(=O)c2ccccc2)c1Sc1ccc(Cl)cc1` | percent of 1 uM PGE2 response; plus low (about EC15) PGE2 agonist | -7.34 |
| 6 | `COc1ccc(-n2c(COc3cccc4ccccc34)nnc2SCC#N)cc1` | percent of 1 uM PGE2 response; plus low (about EC15) PGE2 agonist | -8.013 |
| 7 | `O=C(NNc1ccc([N+](=O)[O-])cc1[N+](=O)[O-])C1C2CCCCC21` (stereo not given) | percent of 1 uM PGE2 response; plus low (about EC15) PGE2 agonist | -7.923 |
| 8 | `CCOC(=O)c1ccccc1NC(=O)COc1ccccc1` | percent of 1 uM PGE2 response; plus low (about EC15) PGE2 agonist | 0.9167 |
| 9 | `CCOP(=S)(OCC)Oc1nc(Cl)c(Cl)cc1Cl` | percent of 1 uM PGE2 response; plus low (about EC15) PGE2 agonist | 4.303 |
| 10 | `FC(F)(F)c1cc(-c2ccccc2)nc(N2CCOCC2)n1` | percent of 1 uM PGE2 response; plus low (about EC15) PGE2 agonist | -2.227 |
| 11 | `COCCn1c(SC(C(=O)Nc2cc(C)ccc2OC)c2ccccc2)nnc1-c1ccc(Cl)cc1` (stereo not given) | percent of 1 uM PGE2 response; plus low (about EC15) PGE2 agonist | 16.23 |
| 12 | `O=C(Nc1ccccc1)/C(=C/c1ccccc1)c1ccccc1` | percent of 1 uM PGE2 response; plus low (about EC15) PGE2 agonist | 5.017 |
| 13 | `CN(C)c1ncc(S(=O)(=O)c2ccccc2)c(-c2ccccc2Cl)n1` | percent of 1 uM PGE2 response; plus low (about EC15) PGE2 agonist | -9.197 |
| 14 | `CC1=Nc2ccccc2/C1=C/c1sc(=S)n(-c2cccc(C(=O)O)c2)c1O` | percent of 1 uM PGE2 response; plus low (about EC15) PGE2 agonist | -2.67 |
| 15 | `CN(c1ccccc1)C1CCCCC1NS(=O)(=O)c1ccc(Cl)cc1` (stereo not given) | percent of 1 uM PGE2 response; plus low (about EC15) PGE2 agonist | -5.043 |
| 16 | `CCOP(=O)(c1ccccc1)c1nc(-c2ccccc2C)oc1N1CCCCC1` (stereo not given) | percent of 1 uM PGE2 response; plus low (about EC15) PGE2 agonist | -9.333 |
| 17 | `OCCCNc1nc(-c2ccc(Br)cc2)nnc1-c1ccc(Cl)cc1` | percent of 1 uM PGE2 response; plus low (about EC15) PGE2 agonist | 7.373 |
| 18 | `CCOc1ccc(OCC)c(NC(=O)CN2CCN(c3ccc(C)cc3C)CC2)c1` | percent of 1 uM PGE2 response; plus low (about EC15) PGE2 agonist | 9.55 |
| 19 | `CCOC(=O)c1cc(C)sc1NC(=O)c1ccc(Cl)s1` | percent of 1 uM PGE2 response; plus low (about EC15) PGE2 agonist | -3.413 |
| 20 | `COc1ccc(C(=O)COC(=O)C(CCSC)NS(=O)(=O)c2ccc(Cl)cc2)cc1` (stereo not given) | percent of 1 uM PGE2 response; plus low (about EC15) PGE2 agonist | -18.36 |
| 21 | `CCOc1cc(S(=O)(=O)NCCc2cccc(C)c2)c(OCC)cc1-n1cnnn1` | percent of 1 uM PGE2 response; plus low (about EC15) PGE2 agonist | 0.6067 |
| 22 | `Cc1cccc(OCC(=O)Nc2ccccc2-c2ccccc2)c1` | percent of 1 uM PGE2 response; plus low (about EC15) PGE2 agonist | -10.29 |
| 23 | `CN(C)c1nc(N2CCOCC2)nc(N(c2ccccc2)c2ccccc2)n1` | percent of 1 uM PGE2 response; plus low (about EC15) PGE2 agonist | -14.89 |
| 24 | `C=CCn1c(SCC(N)=O)nc(C)cc1=O` | percent of 1 uM PGE2 response; plus low (about EC15) PGE2 agonist | 0.35 |
| 25 | `CCCCc1ccc(-n2c(Cc3cccs3)n[nH]c2=S)cc1` | percent of 1 uM PGE2 response; plus low (about EC15) PGE2 agonist | -0.7733 |
| 26 | `COc1ccc(-c2cc(C(F)(F)F)nc(N3CCOCC3)n2)cc1OC` | percent of 1 uM PGE2 response; plus low (about EC15) PGE2 agonist | 0.3867 |
| 27 | `COc1ccc2c(c1)C(C)=CC(C)(C)N2S(=O)(=O)c1ccc(Br)cc1` | percent of 1 uM PGE2 response; plus low (about EC15) PGE2 agonist | -8.12 |
| 28 | `Cc1cccc(-n2c(CCc3ccccc3)nnc2SCC(=O)c2ccccc2)c1` | percent of 1 uM PGE2 response; plus low (about EC15) PGE2 agonist | -7.47 |
| 29 | `COc1ccc2c(C)cc(SCC(=O)Nc3ncc(Cl)cc3Cl)nc2c1` | percent of 1 uM PGE2 response; plus low (about EC15) PGE2 agonist | 49.16 |

The first 3 entries again:

compound,condition,cAMP induction (%)
Cc1noc(C)c1COC(=O)C(c1ccccc1)c1ccccc1,percent of 1 uM PGE2 response; plus low (about EC15) PGE2 agonist,-16.07
Cc1ccc(S(=O)(=O)NCC(=O)OCN2C(=O)c3ccccc3C2=O)cc1,percent of 1 uM PGE2 response; plus low (about EC15) PGE2 agonist,-2.627
COc1ccccc1CNc1cc(C)ccc1C,percent of 1 uM PGE2 response; plus low (about EC15) PGE2 agonist,7.51